The record followed here is US20180195056A1.

Protein sequences, listed by entry. Tags and fused reporters are not part of them. Lines headed by an entry give the natural chain unless they say otherwise; changes in a name come on top.
UniProt P60519: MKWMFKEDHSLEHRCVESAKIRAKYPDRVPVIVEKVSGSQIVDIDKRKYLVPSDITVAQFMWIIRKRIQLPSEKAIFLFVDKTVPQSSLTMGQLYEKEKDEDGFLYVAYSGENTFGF
UniProt Q640G7: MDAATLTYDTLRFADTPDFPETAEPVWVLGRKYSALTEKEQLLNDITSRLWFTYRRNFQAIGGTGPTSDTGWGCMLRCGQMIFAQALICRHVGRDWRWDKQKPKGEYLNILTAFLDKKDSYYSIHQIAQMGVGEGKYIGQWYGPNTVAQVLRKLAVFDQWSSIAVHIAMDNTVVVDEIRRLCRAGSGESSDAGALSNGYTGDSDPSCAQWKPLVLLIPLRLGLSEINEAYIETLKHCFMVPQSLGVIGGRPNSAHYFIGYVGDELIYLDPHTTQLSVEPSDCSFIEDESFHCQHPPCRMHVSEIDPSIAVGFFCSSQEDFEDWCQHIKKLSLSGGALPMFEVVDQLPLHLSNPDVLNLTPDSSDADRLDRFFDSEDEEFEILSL

These are yes or no findings as the source states them, for the method shown. In cells and extracts the contact can be indirect. Some results given as binding are weak or reduced against the parent protein; the word gives no strength.

Test [1] addresses His14-Spacer-xlGATE16-GFP (Xenopus laevis) (UniProt P60519). Kind of test: competitive pull-down on immobilized xlGATE16, SDS-PAGE (FIG. 6B).
Test [2] has the same target. Kind of test: discussion of the pull-down and dilution experiments of FIG. 6.
Test [3] has the same target. Kind of test: competitive pull-down, equimolar protease mixture (10 µM each) on immobilized His14-Spacer-xlGATE16-GFP, SDS-PAGE.

For the substance “full-length xlAtg4B (Xenopus laevis Atg4B, residues 1-384) (from UniProt Q640G7 1-384) (enzyme)”, the binding entry in test [1], in test [2] and in test [3] was “binds” throughout.

With “xlAtg4B^14-384 (from UniProt Q640G7 14-384) (enzyme)”, the binding entry in test [1] and in test [3] was “binds” throughout.

“xlAtg4B^25-384 (from UniProt Q640G7 25-384) (enzyme)”: the binding result in test [1] and in test [3] was “binds” in each case.
